Values from PubChem BioAssay AID743454 (Peter MacCallum Cancer Centre, 2014).
The whole screen tested about 18,000 reagents; this is a part drawn at random. Of all reagents, 450 (2.5%) were called active. 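Single biological run; no consistent viability z cut-off exists, so the class columns, not z-scores, define the calls.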

- Purpose: 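Knock-downs lowering viability or raising caspase 3/7 activity in vorinostat-treated resistant cells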 (primary screen)
- System: human HCT116-VR colon cancer cells, selected for vorinostat resistance
- Reagent: siRNA pool against human genes, 40 nM siRNA pool
- Time to read-out: vorinostat for 24 h, read-out about 72 h after transfection
- Challenge: vorinostat at 2.5 µM final
- Measurement: 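Cell viability by CellTiter-Fluor and caspase 3/7 activity by luminescence, each scaled to mock wells per plate, duplicates averaged, then robust z-scored over all plates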
- Direction: viability robust z-score: higher = more viable cells than screen typical; caspase robust z-score: higher = more caspase 3/7 activity than screen typical
- Active means: 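a knock-down is a hit when classed RV1 or RV2 for lowered viability, or CA1 or CA2 for caspase activation; those lethal without drug were dropped; hits were retested singly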

| viability hit class | caspase hit class | viability robust z-score | caspase robust z-score | Outcome | gene |
| --- | --- | --- | --- | --- | --- |
| no change | no change | -1.15 | 0.18 | inactive | RFC2 |
| no change | no change | -0.3 | 0.09 | inactive | ZNHIT2 |
| no change | no change | 0.36 | 0.78 | inactive | NR1H3 |
| no change | no change | 1.15 | -0.46 | inactive | BCL9L |
| no change | no change | 0.82 | 0.31 | inactive | UQCC2 |
| no change | no change | -1.05 | -0.46 | inactive | MYEOV |
| no change | no change | -1.63 | 1.75 | inactive | ARHGAP26 |
| no change | no change | 0.04 | -0.38 | inactive | ADAMTSL5 |
| no change | no change | -0.4 | -0.82 | inactive | ELMO3 |
| no change | no change | -1.12 | 0.46 | inactive | XAGE3 |
| no change | no change | 0.7 | 0.19 | inactive | KCNJ12 |
| no change | no change | 0.16 | -0.34 | inactive | CHID1 |
| no change | no change | 0.16 | -0.74 | inactive | UNC5CL |
| no change | no change | -0.45 | -0.04 | inactive | KCNAB1 |
| no change | no change | -0.16 | 2.06 | inactive | TMEM176A |
| no change | no change | 0.36 | -0.92 | inactive | ORC2 |
| no change | no change | -1.34 | 0.26 | inactive | RIMS3 |
| no change | no change | 0.04 | -0.4 | inactive | SYNGR1 |
| no change | no change | 0.24 | 0.67 | inactive | KRTAP4-4 |
| no change | no change | 0.76 | -0.32 | inactive | CTNND2 |

In a second layout: results already given
{"gene":"CHID1","viability hit class":"no change","caspase hit class":"no change","viability robust z-score":0.16,"caspase robust z-score":-0.34,"Outcome":"inactive"}
{"gene":"UNC5CL","viability hit class":"no change","caspase hit class":"no change","viability robust z-score":0.16,"caspase robust z-score":-0.74,"Outcome":"inactive"}
{"gene":"KCNAB1","viability hit class":"no change","caspase hit class":"no change","viability robust z-score":-0.45,"caspase robust z-score":-0.04,"Outcome":"inactive"}

The list goes on.
| viability hit class | caspase hit class | viability robust z-score | caspase robust z-score | Outcome | gene |
| --- | --- | --- | --- | --- | --- |
| no change | no change | -0.34 | 0.05 | inactive | ZMYM1 |
| no change | no change | -0.78 | 0.47 | inactive | OR51A7 |
| no change | no change | 1.02 | -0.84 | inactive | KLHL41 |
| no change | no change | -0.25 | 0.26 | inactive | OR2T4 |
| RV2 (reduced viability) | no change | -3.07 | -0.88 | active | MYCBPAP |
| no change | no change | 0.28 | -0.59 | inactive | DEPDC1B |
| no change | no change | -0.06 | -0.21 | inactive | KRTAP19-2 |
| no change | no change | 0.3 | 2.4 | inactive | KAT14 |
| no change | no change | -1.31 | -1.01 | inactive | ADAM32 |
| no change | no change | -2.62 | 3.1 | inactive | RGS20 |
| no change | no change | -0.54 | -0.2 | inactive | DDX39B |
| no change | no change | -0.26 | 1.58 | inactive | KIF25 |
| no change | no change | 2.27 | -0.15 | inactive | RTP1 |
| no change | no change | -0.58 | -0.89 | inactive | GINS3 |
| no change | CA2 (caspase activation) | -0.55 | 6.12 | active | SH3GLB2 |
| no change | no change | 0.15 | -0.18 | inactive | AQP8 |
| no change | no change | -0.72 | -0.82 | inactive | SSX6P |
| no change | no change | 0.78 | 0.42 | inactive | TAF1D |
| no change | no change | 2.08 | 0.02 | inactive | ZNF554 |
| no change | no change | -0.06 | -0.45 | inactive | ZBTB37 |
| no change | no change | 1.26 | -0.26 | inactive | RECQL |
| no change | no change | 0.42 | 0.03 | inactive | SPACA5B |
| no change | no change | -0.02 | -0.66 | inactive | VWA2 |
| no change | no change | -0.57 | 0.54 | inactive | OR14I1 |
| no change | no change | -0.05 | -1.4 | inactive | UBE2D2 |
| no change | no change | 0.5 | 0.74 | inactive | NCAPD3 |
| no change | no change | 0.7 | 0.33 | inactive | ATF1 |
| no change | no change | -0.8 | 1.57 | inactive | KDM2A |
| no change | no change | -0.26 | -0.3 | inactive | RGS11 |
| no change | no change | -0.4 | -0.68 | inactive | POP4 |
| no change | no change | -0.02 | -0.81 | inactive | CASC3 |
| no change | no change | -0.99 | -1.11 | inactive | CLCN6 |
| no change | no change | 0.98 | -0.98 | inactive | TSHB |
| no change | no change | 0.05 | 0.02 | inactive | ZC3H3 |
| no change | no change | -0.39 | 1.16 | inactive | MRPS21 |
| no change | no change | 0.76 | 0.32 | inactive | CDC37P1 |
| no change | no change | 0.76 | 0.4 | inactive | SEMA6B |
